Paper PMC3394726
No constants are given. Whether binding was seen depends on the method and setting.

Sequences of proteins named here, by UniProt entry; tags and fusion partners are left off. A change or cut given only in a name is not applied to a line headed by its entry. A line that says so, or that is headed by a name, gives the form on record, which may keep a tag or linker. Residues count along the entry.
recombinant human MASP-1 (P48740, residues 20-699): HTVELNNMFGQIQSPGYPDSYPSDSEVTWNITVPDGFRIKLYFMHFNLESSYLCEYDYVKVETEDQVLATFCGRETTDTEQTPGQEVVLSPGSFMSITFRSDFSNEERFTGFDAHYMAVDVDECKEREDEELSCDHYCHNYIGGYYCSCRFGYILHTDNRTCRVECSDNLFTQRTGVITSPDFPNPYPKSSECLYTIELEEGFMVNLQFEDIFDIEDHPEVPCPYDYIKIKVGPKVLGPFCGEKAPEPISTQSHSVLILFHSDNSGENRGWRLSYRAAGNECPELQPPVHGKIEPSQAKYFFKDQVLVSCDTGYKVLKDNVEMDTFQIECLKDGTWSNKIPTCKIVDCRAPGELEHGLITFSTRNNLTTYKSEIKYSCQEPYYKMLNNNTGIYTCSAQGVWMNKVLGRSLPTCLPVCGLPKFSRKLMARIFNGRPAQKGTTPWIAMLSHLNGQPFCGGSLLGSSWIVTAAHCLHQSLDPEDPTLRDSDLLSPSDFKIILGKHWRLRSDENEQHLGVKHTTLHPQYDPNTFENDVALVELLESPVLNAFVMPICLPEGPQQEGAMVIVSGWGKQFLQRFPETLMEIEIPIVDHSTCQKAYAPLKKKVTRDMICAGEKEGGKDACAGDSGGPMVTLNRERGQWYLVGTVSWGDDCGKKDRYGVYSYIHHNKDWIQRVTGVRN
recombinant MASP-3 (P48740, form named): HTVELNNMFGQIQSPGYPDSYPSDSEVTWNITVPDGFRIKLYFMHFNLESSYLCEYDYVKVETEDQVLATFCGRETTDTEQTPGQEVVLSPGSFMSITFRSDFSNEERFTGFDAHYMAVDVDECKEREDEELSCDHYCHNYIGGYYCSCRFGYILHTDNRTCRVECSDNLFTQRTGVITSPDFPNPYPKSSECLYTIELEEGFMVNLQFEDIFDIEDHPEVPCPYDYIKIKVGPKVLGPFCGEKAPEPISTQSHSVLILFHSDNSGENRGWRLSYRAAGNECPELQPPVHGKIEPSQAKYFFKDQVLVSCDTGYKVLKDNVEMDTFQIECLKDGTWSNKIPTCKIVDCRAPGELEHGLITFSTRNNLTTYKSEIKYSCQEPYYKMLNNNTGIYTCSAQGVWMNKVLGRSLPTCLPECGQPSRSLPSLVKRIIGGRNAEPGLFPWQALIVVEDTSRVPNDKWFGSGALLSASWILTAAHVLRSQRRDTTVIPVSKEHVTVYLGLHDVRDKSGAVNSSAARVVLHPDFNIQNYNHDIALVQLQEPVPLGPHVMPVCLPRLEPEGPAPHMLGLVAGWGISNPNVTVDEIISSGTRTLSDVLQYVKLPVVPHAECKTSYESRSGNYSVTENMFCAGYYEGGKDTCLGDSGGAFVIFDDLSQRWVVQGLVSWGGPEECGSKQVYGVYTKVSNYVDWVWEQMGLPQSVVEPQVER
UniProt O00187, residues 16-686: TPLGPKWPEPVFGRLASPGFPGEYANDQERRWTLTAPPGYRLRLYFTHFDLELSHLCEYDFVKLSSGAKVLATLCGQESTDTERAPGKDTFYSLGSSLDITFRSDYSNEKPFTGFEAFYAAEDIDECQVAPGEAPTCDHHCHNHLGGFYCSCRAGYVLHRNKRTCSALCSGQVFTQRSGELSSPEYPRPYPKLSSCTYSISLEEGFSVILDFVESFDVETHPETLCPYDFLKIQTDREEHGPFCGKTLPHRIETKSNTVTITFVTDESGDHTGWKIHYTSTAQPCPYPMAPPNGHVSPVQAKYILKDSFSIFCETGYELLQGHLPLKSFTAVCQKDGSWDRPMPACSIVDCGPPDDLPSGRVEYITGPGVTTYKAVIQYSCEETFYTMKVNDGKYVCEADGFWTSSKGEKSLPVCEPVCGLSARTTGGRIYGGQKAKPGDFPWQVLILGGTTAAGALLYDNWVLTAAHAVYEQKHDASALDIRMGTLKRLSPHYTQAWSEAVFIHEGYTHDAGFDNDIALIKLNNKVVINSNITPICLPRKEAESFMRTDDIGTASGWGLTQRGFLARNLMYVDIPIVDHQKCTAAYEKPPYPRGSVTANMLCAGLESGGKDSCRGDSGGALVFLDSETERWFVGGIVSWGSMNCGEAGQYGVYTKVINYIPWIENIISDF

Legend:
[1] = target: recombinant human MASP-1 (human) (UniProt P48740); assay: SDS-stable serpin/protease complex on SDS-PAGE; increasing concentrations of MASP-1 or MASP-2 incubated with SMSB3 and SMSB4 for 1 h at room temperature; 10% SDS-PAGE; shows covalent complexes only; both purified
[2] = target: recombinant human MASP-2 (human) (UniProt O00187); assay: as above
[3] = target: recombinant human MASP-1 (human) (UniProt P48740); assay: SDS-stable serpin/protease complex on SDS-PAGE; C1r, C1s, MASP-1, MASP-2 or MASP-3 incubated with SMSB3, SMSB4 or human C1-inhibitor for 1 h at room temperature; 10% SDS-PAGE; shows covalent complexes only; both purified
[4] = target: recombinant human MASP-2 (human) (UniProt O00187); assay: as above
[5] = target: recombinant MASP-3 (human) (UniProt P48740); assay: as above

Measured: binding

B1: scabies mite serpin SMSB4, wild type (protein, UniProt A0A834R821 30-498)
chain: KPQHHSQSHQQPVLASDPNEDPLKALNLLQQQKQFTEHFFQQNNEKLNLLGGQEIIKCFDVNFTSNVLNNIDHISKIMIDGSRHFGLRLFQILNLFEPKTSSPGLVYSPISVWSTLILTYLGSDGVTEQELSQKLKLNQLPKPLVALAYRSLKWWKDFNVLKLMQNHTDATQVCSANKLYINDHLLVKDCFRTIFGDEIEMKSFSSRPQESLSEINDWVRVQTQGHIPNLLGPESISSNTNIVMINAVYFKSFWAQQFDSSKTKKQRFYVSMNEELEADMMTMDSVSVMYGISEELRASAVEIPYSNPDYSFLIILPDITRSLDSMIRTLTWNKIQLLLQNMYDDEVKLMIPKFRSEQEFELAGPLFSLGIKKLFDPRYANLNSIFMNSNNSRVALDSVIHKSFISVDEEGTEAAAATAVIFARSGRPAFPTEFIADRPFLYIIRDVSSNQLLFIGTVRRPYASQAIVA
no binding: all assays above
